According to publication PMC10132808:
No constants are given. Whether binding was seen depends on the method and setting.

Amino acid sequences for entries named in this document (tags omitted).
UniProt Q06187: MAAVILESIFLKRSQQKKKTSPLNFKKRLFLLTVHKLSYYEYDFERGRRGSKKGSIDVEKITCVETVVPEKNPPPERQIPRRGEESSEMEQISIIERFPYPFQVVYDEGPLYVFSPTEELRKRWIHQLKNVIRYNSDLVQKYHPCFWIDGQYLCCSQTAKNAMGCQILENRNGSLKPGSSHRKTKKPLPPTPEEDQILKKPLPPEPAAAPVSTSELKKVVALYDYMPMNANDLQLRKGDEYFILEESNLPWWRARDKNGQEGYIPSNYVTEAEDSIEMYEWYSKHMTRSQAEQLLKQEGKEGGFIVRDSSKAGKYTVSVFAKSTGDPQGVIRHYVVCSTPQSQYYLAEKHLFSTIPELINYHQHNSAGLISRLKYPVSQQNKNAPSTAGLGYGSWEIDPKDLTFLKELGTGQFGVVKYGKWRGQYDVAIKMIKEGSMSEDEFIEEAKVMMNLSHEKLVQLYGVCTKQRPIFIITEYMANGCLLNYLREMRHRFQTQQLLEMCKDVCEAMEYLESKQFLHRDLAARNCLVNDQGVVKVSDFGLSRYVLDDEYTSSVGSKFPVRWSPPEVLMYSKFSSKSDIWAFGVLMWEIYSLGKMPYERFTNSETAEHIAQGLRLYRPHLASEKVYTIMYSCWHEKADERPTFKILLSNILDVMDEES

Molecular target: Full-length Btk (no His tag) (human) (UniProt Q06187)
Assay: TIRF microscopy of recruitment to supported-lipid bilayers; Btk, Grb2 and SOS-PRR-AlexaFluor647, or Grb2 and SOS-PRR-AlexaFluor647, added to a PIP3-containing membrane; AlexaFluor647 intensity at the membrane; both purified

SOS-PRR labeled with Alexa Fluor 647 (from UniProt Q07889 1051-1333) (domain or fragment)
binding: no binding
